{"source": "PubChem BioAssay AID686937 (Drosophila RNAi Screening Center, 2013)", "test": "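Genes whose loss weakens secretory pathway function in fly cells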 (primary screen)", "system": "Drosophila S2 cells expressing secreted horseradish peroxidase", "reagent": "long dsRNA against Drosophila genes", "duration": "about 5.5 days (5 days dsRNA, then 12 h reporter induction)", "treatment": "reporter expression induced after 5 days of dsRNA, read 12 h later; inducer not stated", "measurement": "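After 5 days of dsRNA and 12 h of reporter induction, medium peroxidase read by chemiluminescence and scored as per-plate z-score; higher values mean more reporter released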", "reading the numbers": "z-score: higher = more reporter secreted into medium", "note": "The deposit covers about 23,000 reagents; this is a random part of those that have a named target and a result. 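Reduced-secretion tags in replicate 1 do not always agree with the z-scores; no criterion for assigning the tags was given.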 A plus sign joins genes that one reagent is predicted to hit. Further read-outs or replicates are left out here. Reagent sequences are not shown. Not given: the amount of reagent."}
{"predicted target":"CG31688 + CG31687","DRSC id":"DRSC02116","z-score, replicate 1":-0.46}
{"predicted target":"DAT","DRSC id":"DRSC07394","z-score, replicate 1":0.49}
{"predicted target":"CG3625","DRSC id":"DRSC00008","z-score, replicate 1":0.27}
{"predicted target":"CG3625","DRSC id":"DRSC00621","z-score, replicate 1":-0.22}
{"predicted target":"CG12662","DRSC id":"DRSC17865","z-score, replicate 1":-0.77}
{"predicted target":"CG14839","DRSC id":"DRSC14963","z-score, replicate 1":0.32}
{"predicted target":"H2.0","DRSC id":"DRSC03340","z-score, replicate 1":0.3}
{"predicted target":"H2.0","DRSC id":"DRSC22555","z-score, replicate 1":-0.85}
{"predicted target":"CG1801","DRSC id":"DRSC20556","z-score, replicate 1":0.38}
{"predicted target":"CG31465","DRSC id":"DRSC16090","z-score, replicate 1":0.23}
{"predicted target":"Slu7","DRSC id":"DRSC14729","z-score, replicate 1":-7,"phenotype, replicate 1":"reduced secretion"}
{"predicted target":"CRIF","DRSC id":"DRSC11811","z-score, replicate 1":0.23}
{"predicted target":"psh","DRSC id":"DRSC19990","z-score, replicate 1":0.34}
{"predicted target":"Su(Tpl)","DRSC id":"DRSC10954","z-score, replicate 1":-3.01,"phenotype, replicate 1":"reduced secretion"}
{"predicted target":"FoxL1","DRSC id":"DRSC08717","z-score, replicate 1":0.24}
{"predicted target":"Atx-1","DRSC id":"DRSC18365","z-score, replicate 1":0.19}
{"predicted target":"CG12539","DRSC id":"DRSC19470","z-score, replicate 1":0.31}
{"predicted target":"Sec13","DRSC id":"DRSC14144","z-score, replicate 1":-1.35}
{"predicted target":"CG42304 + Snup","DRSC id":"DRSC08276","z-score, replicate 1":0.16}
{"predicted target":"CG42304 + Snup","DRSC id":"DRSC08277","z-score, replicate 1":-0.21}
{"predicted target":"CG42304 + Snup","DRSC id":"DRSC22781","z-score, replicate 1":2.97}
{"predicted target":"CG15927","DRSC id":"DRSC19742","z-score, replicate 1":-0.31}
{"predicted target":"CG13678","DRSC id":"DRSC10036","z-score, replicate 1":0.68}
{"predicted target":"sqh","DRSC id":"DRSC18837","z-score, replicate 1":-0.32}
{"predicted target":"Ythdc1","DRSC id":"DRSC08141","z-score, replicate 1":0.74}
{"predicted target":"Nepl8","DRSC id":"DRSC02759","z-score, replicate 1":0.18}
{"predicted target":"GlcAT-S","DRSC id":"DRSC02731","z-score, replicate 1":0.22}

Ordered by “z-score, replicate 1” (lowest first): some entries from above
{"predicted target":"Slu7","DRSC id":"DRSC14729","z-score, replicate 1":-7,"phenotype, replicate 1":"reduced secretion"}
{"predicted target":"CG31465","DRSC id":"DRSC16090","z-score, replicate 1":0.23}
